PubChem BioAssay AID1159578, Peter MacCallum Cancer Centre, 2015
The whole screen tested about 18,000 reagents; this is a random part of them. About 1,030 of them (5.7%) were called active. 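Inactive calls also include pools with fewer than 3300 nuclei, whose migration was not assessed.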 Raw values vary from plate to plate and are shown uncorrected. No sequences are given here.

Purpose: 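Knock-downs that alter how fast lymphatic endothelial cells migrate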 (primary screen)
System: human lymphatic endothelial cells
Reagent: siRNA pool against human genes, 40 nM
Timing: 48 h after transfection
Read-out: 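High-content imaging of dye-stained cells in a scratch assay measures filled wound area and nuclei per well; duplicate means given as ratio to mock and robust z-score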
Direction: migration robust z-score: higher = faster migration into the scratch; migration relative to mock: higher = more scratch area covered than mock; nuclei per well: higher = more cells in the well
Call rule: 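Pools averaging fewer than 3300 nuclei are never called; remaining pools count as changed when migration robust z lies outside -2 to 2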
Calls: active = migration changed; inactive = no migration change, or too few cells

The first 3 entries, ahead of the listing:
| target gene | migration robust z-score | migration class with cell-count check | migration relative to mock | nuclei per well, duplicate mean | Call |
| --- | --- | --- | --- | --- | --- |
| PPFIBP2 | 0.18 | migration z between -2 and 2; enough cells | 0.84 | 5166 | inactive |
| SMPD3 | -0.73 | migration z between -2 and 2; enough cells | 0.66 | 6762 | inactive |
| RIMS3 | -2.6 | under 3300 nuclei; migration not judged | 0.21 | 2985 | inactive |

The list itself, from the first entry:
| target gene | migration robust z-score | migration class with cell-count check | migration relative to mock | nuclei per well, duplicate mean | Call |
| --- | --- | --- | --- | --- | --- |
| PPFIBP2 | 0.18 | migration z between -2 and 2; enough cells | 0.84 | 5166 | inactive |
| SMPD3 | -0.73 | migration z between -2 and 2; enough cells | 0.66 | 6762 | inactive |
| RIMS3 | -2.6 | under 3300 nuclei; migration not judged | 0.21 | 2985 | inactive |
| NAT14 | 0.34 | migration z between -2 and 2; enough cells | 0.98 | 6583 | inactive |
| GOLGA4 | 0.32 | migration z between -2 and 2; enough cells | 0.97 | 5892 | inactive |
| AUH | -0.26 | migration z between -2 and 2; enough cells | 0.76 | 5868 | inactive |
| NAA40 | 0.09 | migration z between -2 and 2; enough cells | 0.9 | 6210 | inactive |
| ZNF23 | -0.98 | migration z between -2 and 2; enough cells | 0.63 | 3911 | inactive |
| LINC00336 | -0.52 | migration z between -2 and 2; enough cells | 0.75 | 5733 | inactive |
| SLC29A2 | -0.08 | migration z between -2 and 2; enough cells | 0.79 | 5258 | inactive |
| ZMYM4 | 1.75 | migration z between -2 and 2; enough cells | 1.34 | 6792 | inactive |
| FZD5 | 1.06 | migration z between -2 and 2; enough cells | 1.01 | 5822 | inactive |
| MAGEB18 | 0.78 | migration z between -2 and 2; enough cells | 1.08 | 6535 | inactive |
| NELFA | 0.2 | migration z between -2 and 2; enough cells | 0.94 | 6666 | inactive |
| GNG11 | 0.5 | migration z between -2 and 2; enough cells | 1.02 | 6358 | inactive |
| DCAF17 | 0.22 | migration z between -2 and 2; enough cells | 0.94 | 6276 | inactive |
| SMIM15 | 0.85 | migration z between -2 and 2; enough cells | 1.1 | 6806 | inactive |
| TSPY3 | -2.23 | migration z below -2; enough cells | 0.3 | 5180 | active |
| H2BC18 | 0.16 | migration z between -2 and 2; enough cells | 0.92 | 7284 | inactive |
| AKIRIN2 | 0.86 | migration z between -2 and 2; enough cells | 1.11 | 5006 | inactive |
| KIF6 | -0.44 | migration z between -2 and 2; enough cells | 0.77 | 6580 | inactive |
| PURB | -0.34 | migration z between -2 and 2; enough cells | 0.8 | 4939 | inactive |
| MRPL32 | 0.57 | migration z between -2 and 2; enough cells | 1.04 | 6630 | inactive |
| CASP2 | -0.44 | migration z between -2 and 2; enough cells | 0.72 | 5768 | inactive |
| SLC39A9 | -1.98 | migration z between -2 and 2; enough cells | 0.37 | 3778 | inactive |
| ESAM | -1.02 | migration z between -2 and 2; enough cells | 0.62 | 7140 | inactive |
| ZNF354A | 0.62 | migration z between -2 and 2; enough cells | 0.92 | 6268 | inactive |
| PDE6H | 0.1 | migration z between -2 and 2; enough cells | 0.91 | 4838 | inactive |
| OAZ2 | 0.29 | migration z between -2 and 2; enough cells | 0.86 | 5864 | inactive |
| MYH1 | 0.93 | migration z between -2 and 2; enough cells | 1.12 | 6326 | inactive |
| PTRH1 | 1.17 | migration z between -2 and 2; enough cells | 1.03 | 6329 | inactive |
| PTPN23 | -0.05 | migration z between -2 and 2; enough cells | 0.8 | 5812 | inactive |
| OR1E2 | 0.18 | migration z between -2 and 2; enough cells | 0.93 | 5620 | inactive |
| KPNA4 | 0.83 | migration z between -2 and 2; enough cells | 0.96 | 6246 | inactive |
| NT5DC3 | 1.27 | migration z between -2 and 2; enough cells | 1.21 | 7474 | inactive |
| ZNF555 | 0.29 | migration z between -2 and 2; enough cells | 0.96 | 5306 | inactive |
| RPS24 | -0.43 | migration z between -2 and 2; enough cells | 0.78 | 4814 | inactive |
| LOXL1 | 0.91 | migration z between -2 and 2; enough cells | 0.98 | 4644 | inactive |
| SF3B3 | -1.32 | migration z between -2 and 2; enough cells | 0.55 | 4534 | inactive |
